{"source": "PubChem BioAssay AID540276", "about": "(National Center for Advancing Translational Sciences (NCATS), 2011)", "note": "Hit rate of the full screen: of about 300,000 compounds, about 5,400 (1.8%) were called active. Inconclusive results, whose numbers are uncertain, are shown with a selection of clear calls. Calls follow the shape of the full dose curve; tested in HEK293 cells. Potencies beside an inconclusive call are fits to weak or partial responses and may not hold up. Potency is read from the fitted curve at half-maximal effect."}
{"assay": "qHTS for inhibitors of binding or entry into cells for Marburg Virus", "details": "Marburg virus pseudotyped entry inhibition, cell reporter; series mostly up to 37.8 µM"}
{"smiles": "COc1ccc(Nc2nc3[nH]c(=O)cc(O)c3s2)cc1", "Potency": "inconclusive: 5.62 µM [inhibitor, single point]"}
{"smiles": "COc1ccc(NC(=O)CCCN2C(=O)C3CC=CCC3C2=O)cc1", "note": "(stereo unspecified)", "Potency": "inconclusive: 2.51 µM [activator, partial curve, poor fit]"}
{"smiles": "O=C(NS(=O)(=O)Oc1ccccc1F)OC[C@@H]1CCCN2CCCCC12", "note": "(stereo partly specified)", "Potency": "inactive"}
{"smiles": "COc1ccc(CCNC(=O)C2CCN(S(=O)(=O)c3cccs3)CC2)cc1OC", "Potency": "inactive"}
{"smiles": "CSc1nsc2nc(=O)c(/C=C3\\C(C)=Nc4ccc(C)cc43)c(N)n12", "Potency": "inconclusive: 10 µM [inhibitor, partial curve, poor fit]"}
{"smiles": "CCCC[C@]12Cc3ccccc3C(O1)c1c(cc(-c3ccccc3)oc1=O)O2", "Potency": "inconclusive: 0.0119 µM [inhibitor, full curve, poor fit]"}
{"smiles": "O=C(c1ccc(Cl)c(S(=O)(=O)NCc2ccco2)c1)N1CCN(c2ccc(F)cc2)CC1", "Potency": "inconclusive: 35.5 µM [inhibitor, single point]"}
{"smiles": "CN(C)S(=O)(=O)c1cccc(-c2nnc(SCc3ccc4c(c3)OCCO4)o2)c1", "Potency": "inactive"}
{"smiles": "CC(=O)Oc1ccc2c(=O)c(Oc3ccccc3)c(C)oc2c1OC(C)=O", "Potency": "inconclusive: 3.98 µM [inhibitor, full curve, poor fit]"}
{"smiles": "Cc1oc(C(=O)Nc2ccc(O)cc2)cc1COc1ccccc1", "Potency": "inconclusive: 35.5 µM [inhibitor, single point]"}
{"smiles": "CC(C)Cc1ccc(C(C)NC(=O)Cc2ccc(S(=O)(=O)N3CCOCC3)s2)cc1", "note": "(stereo unspecified)", "Potency": "inconclusive: 0.891 µM [inhibitor, partial curve, poor fit]"}
{"smiles": "CCC1CCCCN1C(=O)CSc1nnc(CNC(=O)c2c(F)cccc2Cl)o1", "note": "(stereo unspecified)", "Potency": "inactive"}
{"smiles": "O=C(Nc1nc(C2C3CC4CC(C3)CC2C4)cs1)c1cc2cc([N+](=O)[O-])ccc2oc1=O", "note": "(stereo unspecified)", "Potency": "inconclusive: 2 µM [inhibitor, partial curve, poor fit]"}
{"smiles": "C/C(=N\\NC1=NCCN1)c1ccc(N)c([N+](=O)[O-])c1", "Potency": "inconclusive: 0.794 µM [inhibitor, full curve]"}
{"smiles": "CCc1cc2ccc(C)cc2nc1SCC(=O)c1ccc(NC(C)=O)cc1", "Potency": "inconclusive: 23.1 µM [inhibitor, partial curve, poor fit]"}
{"smiles": "C/C(=N\\Nc1ccccn1)c1ccc2c(c1)OCO2", "Potency": "inconclusive: 17.8 µM [activator, single point]"}
{"smiles": "Cc1nc(-c2ccc(NC(=O)CC(C)C)cc2)cs1", "Potency": "inactive"}
{"smiles": "CC(=O)c1cnn(-c2ccc(Cl)cc2)c1C", "Potency": "inconclusive: 6.31 µM [inhibitor, single point]"}
{"smiles": "CCC(C)N=C1CC(C)(C)CC(=O)/C1=C(/O)Cc1ccccc1", "note": "(stereo unspecified)", "Potency": "inconclusive: 5.62 µM [inhibitor, single point]"}
{"smiles": "COc1ccc(CCNC(=O)CN(c2cc(OC)ccc2OC)S(=O)(=O)c2ccccc2)cc1", "Potency": "inconclusive: 32.6 µM [inhibitor, single point]"}
{"smiles": "C=CCn1c(SCC(=O)NC2CCCc3ccccc32)nnc1-c1ccncc1", "note": "(stereo unspecified)", "Potency": "inconclusive: 0.316 µM [inhibitor, partial curve, poor fit]"}
{"smiles": "CCc1ccc(C(=O)COC(=O)c2ccc(Cl)nc2)cc1", "Potency": "inactive"}
{"smiles": "CN(C)S(=O)(=O)c1cccc(COC(=O)Cc2c(F)cccc2Cl)c1", "Potency": "inactive"}
{"smiles": "COC(=O)C(C(=O)OC)c1ncccc1[N+](=O)[O-]", "Potency": "inconclusive: 8.91 µM [inhibitor, partial curve, poor fit]"}
{"smiles": "Cc1cc(OCC(=O)C(C)(C)C)c2c(C)c(C)c(=O)oc2c1", "Potency": "inconclusive: 35.5 µM [inhibitor, single point]"}
{"smiles": "COC(=O)[C@@]1(Cc2ccc(OC)cc2)[C@H]2c3cc(C(=O)N(C)C)n(Cc4ccc(OC(F)(F)F)cc4)c3C[C@H]2CN1C(=O)c1ccccc1", "Potency": "active: 9.2 µM"}
{"smiles": "Cc1cccc(NC(=S)NC(=O)C(c2ccccc2)c2ccccc2)n1", "Potency": "inconclusive: 10 µM [inhibitor, partial curve, poor fit]"}
{"smiles": "COc1cc2c(cc1NC(=O)/C=C/c1cc(OC)c(OC)c(OC)c1)oc1ccccc12", "Potency": "active: 8.91 µM"}
{"smiles": "O=C(COc1ccc(Br)cc1CO)Nc1ccccc1", "Potency": "inactive"}
{"smiles": "COC(=O)C(=CC(=CN(C)C)C=C(C(=O)OC)C(=O)OC)C(=O)OC", "Potency": "inconclusive: 1.26 µM [activator, partial curve, poor fit]"}
{"smiles": "CCN(CC)CCOC(=O)c1ccc(NC(=O)c2cn(-c3ccccc3)nc2-c2cccs2)cc1", "Potency": "inconclusive: 5.62 µM [inhibitor, full curve, poor fit]"}
{"smiles": "NC(=O)c1ccsc1NC(=O)COC(=O)/C=C/c1ccccc1[N+](=O)[O-]", "Potency": "inconclusive: 15.8 µM [inhibitor, partial curve, poor fit]"}
{"smiles": "Cc1ccc2c(c1)C(C)CC(C)(C)N2C(=O)NC1CCCCC1", "note": "(stereo unspecified)", "Potency": "inconclusive: 5.62 µM [activator, full curve, poor fit]"}
{"smiles": "O=C(Nc1cc(C(F)(F)F)ccc1N1CCCCC1)c1ccco1", "Potency": "inconclusive: 3.16 µM [inhibitor, single point]"}
{"smiles": "Cc1ccc(-c2cc(C(F)F)n3ncc(C(=O)N4CCCc5ccccc54)c3n2)cc1", "Potency": "inconclusive: 11.2 µM [inhibitor, partial curve, poor fit]"}
{"smiles": "O=C(CN(C(=O)Cn1nnc(-c2ccccc2F)n1)c1cccc2c1CCCC2)NCc1ccccc1", "Potency": "inconclusive: 1.83 µM [inhibitor, partial curve, poor fit]"}
{"smiles": "O=C(Cn1nc(-c2ccc(Cl)cc2)c2ccccc2c1=O)Nc1cccnc1", "Potency": "inconclusive: 6.51 µM [inhibitor, single point]"}
{"smiles": "N#Cc1ccccc1CSc1nc(N)cc(N)n1", "Potency": "inactive"}
{"smiles": "Cc1ccc(S(=O)(=O)c2cc3c(=O)n4cccc(C)c4nc3n(CC3CCCO3)c2=N)cc1C", "note": "(stereo unspecified)", "Potency": "inconclusive: 35.5 µM [activator, single point]"}
{"smiles": "CC1CCN(c2ccc(-c3nc(C(C)C)no3)cc2[N+](=O)[O-])CC1", "Potency": "inactive"}
{"smiles": "CO/C=C/C#CC1(O)CCN(C)CC1", "Potency": "inactive"}
{"smiles": "CCC(=O)NC(Nc1sc2c(c1C(=O)OC)CCC2)C(Cl)(Cl)Cl", "note": "(stereo unspecified)", "Potency": "inconclusive: 6.51 µM [inhibitor, full curve]"}
{"smiles": "CCOC(=O)c1c(/N=C/C2C(=O)NC(=O)NC2=O)sc2c1CCC2", "Potency": "inconclusive: 3.55 µM [activator, partial curve]"}
{"smiles": "NS(=O)(=O)c1ccc(N/C=C\\C(=O)c2ccc(F)cc2)cc1", "Potency": "inconclusive: 0.447 µM [activator, full curve, poor fit]"}
{"smiles": "COC(=O)C1=C(C)NC(=O)NC1C1CC=CCC1", "note": "(stereo unspecified)", "Potency": "inconclusive: 4.61 µM [inhibitor, partial curve, poor fit]"}
{"smiles": "COc1ccccc1-c1nnc(C2CCN(C(=O)c3ccc(C)cc3)CC2)o1", "Potency": "inconclusive: 5.62 µM [activator, single point]"}
{"smiles": "COc1ccc2nc3oc(C(=O)NCc4ccccc4OC)cc3cc2c1", "Potency": "inactive"}
{"smiles": "COc1ccc(/C=N/NC(=O)c2ccc(COc3ccccc3Cl)o2)c(OC)c1C", "Potency": "inconclusive: 25.1 µM [inhibitor, single point]"}
{"smiles": "CCOC(=O)c1ccc(NC(=S)NC(=O)c2cncc(Br)c2)cc1", "Potency": "inactive"}
{"smiles": "Cc1cccc(-c2nc(S(=O)(=O)c3ccc(F)cc3)c(NCCCN3CCOCC3)o2)c1", "Potency": "inconclusive: 35.5 µM [inhibitor, single point]"}
{"smiles": "COc1ccc(NC(=O)c2sccc2C)cn1", "Potency": "inconclusive: 3.55 µM [activator, partial curve, poor fit]"}
{"smiles": "CN(Cc1cc([N+](=O)[O-])c2cccnc2c1O)C1CCCCC1", "Potency": "inactive"}
{"smiles": "COc1ccc2nc(NC(=O)CN3CCOCC3)sc2c1", "Potency": "inconclusive: 35.5 µM [activator, single point]"}
{"smiles": "COC(=O)COc1cccc(NC(=O)c2ccc(Cl)cc2)c1", "Potency": "inconclusive: 1.78 µM [inhibitor, partial curve, poor fit]"}
{"smiles": "CCOC(=O)N1CCN(C(=O)CCCOc2ccccc2)CC1", "Potency": "inconclusive: 2.91 µM [activator, full curve, poor fit]"}
{"smiles": "Cc1ccc(NC(=O)c2c(C)nc3ccccn23)cc1C", "Potency": "inconclusive: 10 µM [activator, partial curve, poor fit]"}
{"smiles": "CN(Cc1cc(Cl)cc(Cl)c1)CC(C(=O)c1ccccc1)c1ccccc1", "note": "(stereo unspecified)", "Potency": "inconclusive: 22.4 µM [inhibitor, partial curve, poor fit]"}
{"smiles": "O=C(Cc1ccccc1[N+](=O)[O-])NCc1ccncc1", "Potency": "inconclusive: 0.316 µM [inhibitor, partial curve, poor fit]"}
{"smiles": "CCN(CC(=O)Nc1ccc(NC(C)=O)cc1)C(=O)/C=C/c1ccc2c(c1)OCO2", "Potency": "inconclusive: 35.5 µM [inhibitor, single point]"}
{"smiles": "c1ccc(CNc2nc(-c3cccs3)nc3ccccc23)nc1", "Potency": "inconclusive: 28.2 µM [inhibitor, single point]"}
{"smiles": "COc1ccc(-c2noc(CN(C)CCC3CCCCO3)n2)cc1", "note": "(stereo unspecified)", "Potency": "inactive"}
{"smiles": "O=C(NC1CC1)C1=NOC(CNc2ncc(C(F)(F)F)cc2Cl)C1", "note": "(stereo unspecified)", "Potency": "inactive"}
{"smiles": "CSc1nnc(CCNS(=O)(=O)c2ccccc2Br)n1C", "Potency": "inactive"}
{"smiles": "O=C(NC(=S)Nc1cccc(Cl)c1N1CCCC1)c1ccc(-c2cccc([N+](=O)[O-])c2)o1", "Potency": "inconclusive: 7.3 µM [inhibitor, partial curve, poor fit]"}
{"smiles": "Cc1ccc(COc2ccc(Br)cc2/C=N/O)cc1", "Potency": "inconclusive: 5.62 µM [activator, single point]"}
{"smiles": "Cc1cc(Cn2nnnc2-c2ccncc2)cc(C)c1O", "Potency": "inconclusive: 7.94 µM [inhibitor, partial curve, poor fit]"}
